Measurements from PubChem BioAssay AID493014 (National Center for Advancing Translational Sciences (NCATS), 2011).
Some of the results follow. Further columns of the screen follow, without active or inactive calls. The list favours compounds with an active or inconclusive main result. The note in brackets gives the kind of curve behind each potency; many fits are weak.

Assay: qHTS Assay to Find Inhibitors of Chronic Active B-Cell Receptor Signaling
Conditions: ABC-DLBCL IkBa-CBG/CBR reporter, luminescence ratio (green luciferase fused to IkBa over red control in TMD8 lymphoma cells), 4 h
In short: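 Concentration-response series (up to 46 uM) were applied to TMD8 dual-reporter cells for 4 h at 37C with doxycycline. Green/red ratio, after filter-overlap correction, defined %Activity; red signal alone was normalised to basal cells and zero luminescence.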

[1] = measured here: CBR red luminescence, cell number
[2] = measured here: IkBa-CBG green luminescence

Question: Which AC50 [1] does the source give for Cc1nc(Nc2ccccc2)c2oc3ccc(Cl)cc3c2n1 here?
Answer: The AC50 was 8.91 µM [falling, partial curve].

Question: Which AC50 [1] does the source give for Cc1cc(NC(=O)COC(=O)c2ccccc2S(=O)(=O)N(C)c2ccccc2)no1 here?
Answer: The AC50 was 2.82 µM [falling, partial curve, poor fit].

Question: Which AC50 [1] does the source give for O=C(CSc1nc2ccccc2[nH]1)N1CCCCC1 here?
Answer: Its AC50 is 0.146 µM [rising, full curve].

Question: For Cc1cc(C)c(C)c(S(=O)(=O)N2CCN(C(=O)C3CSC4(C)CCC(=O)N34)CC2)c1C (stereo unspecified), which AC50 [1] is on record?
Answer: The AC50 was 29.1 µM [rising, single point].

Question: Which AC50 [1] does the source give for CCCc1nnc(NC(=O)CCC(=O)NC2CCCC2)s1 here?
Answer: The AC50 was 0.708 µM [rising, full curve, poor fit].

Question: Which AC50 [1] does the source give for CC(C)(C)NC(=O)C(=O)NNC(=O)c1ccccc1 here?
Answer: The AC50 was 0.891 µM [rising, full curve, poor fit].

Question: Which AC50 [1] does the source give for COc1ccc(OC)c(C(=O)CSc2nnnn2C)c1 here?
Answer: The AC50 was 5.62 µM [falling, partial curve, poor fit].

Question: For CCOc1ccccc1Nc1nnc(-c2cc3cc(OC)ccc3oc2=O)s1, which AC50 [1] is on record?
Answer: Its AC50 is 2.24 µM [falling, partial curve, poor fit].

Question: For Fc1cccc(Cc2noc(CN3CCCN(C4Cc5ccccc5C4)CC3)n2)c1, which AC50 [1] is on record?
Answer: The AC50 was 35.5 µM [falling, single point].

Question: For O=C(NCc1ccc[n+](CCCCS(=O)(=O)[O-])c1)c1ccc(OC(F)F)cc1, which AC50 [1] is on record?
Answer: The AC50 was 12.6 µM [rising, partial curve, poor fit].

Question: For COc1ccccc1-c1nn2c(C3COc4ccccc4O3)nnc2s1 (stereo unspecified), which AC50 [1] is on record?
Answer: The AC50 was 1.26 µM [rising, partial curve].

Question: For COc1cc(C(=O)NC(=S)Nc2ccccc2[N+](=O)[O-])cc(OC)c1OC, which AC50 [1] is on record?
Answer: The AC50 was 0.631 µM [rising, partial curve, poor fit].

Question: With O=C(CC(SCCO)c1ccc(F)cc1)c1ccco1 (stereo unspecified) as the compound, how does the AC50 [1] read?
Answer: Its AC50 is 17.8 µM [falling, single point].

Question: For CCCCn1c(-c2csc(CC)c2)n[nH]c1=S, which AC50 [1] is on record?
Answer: Its AC50 is 20.6 µM [rising, single point].

Question: With COc1ccc(CCC(C)Nc2ccccc2F)cc1 (stereo unspecified) as the compound, how does the AC50 [1] read?
Answer: Its AC50 is 16.4 µM [rising, single point].

Question: Which AC50 [1] does the source give for CCc1nc(OCCN(C)C)c2oc3ccccc3c2n1 here?
Answer: The AC50 was 35.5 µM [falling, single point].

Question: With COc1ccc(N(CC(=O)Nc2cc(C)on2)S(=O)(=O)c2cc(C)ccc2C)cc1 as the compound, how does the AC50 [1] read?
Answer: Its AC50 is 28.2 µM [falling, partial curve, poor fit].

Question: With NC(=O)c1ncc(C(F)(F)F)cc1Oc1ccc(C(F)(F)F)cc1 as the compound, how does the AC50 [1] read?
Answer: The AC50 was 0.517 µM [falling, full curve, poor fit].

Question: For COc1cc(C)ccc1OCCOc1ccccc1Cl, which AC50 [1] is on record?
Answer: Its AC50 is 3.55 µM [rising, partial curve].

Question: With O=C(CC(c1ccco1)S(=O)(=O)c1ccccc1)c1ccccc1 (stereo unspecified) as the compound, how does the AC50 [1] read?
Answer: The AC50 was 11.2 µM [falling, single point].

Question: With O=C(CCc1nnc2n(Cc3ccc(F)cc3)c(=O)c3ccccc3n12)NCCN1CCOCC1 as the compound, how does the AC50 [1] read?
Answer: The AC50 was 17.8 µM [falling, partial curve].

Question: Which AC50 [1] does the source give for Cc1ccc(CCC(=O)Nc2ccc(N(C)C)cc2)o1 here?
Answer: The AC50 was 14.1 µM [falling, partial curve, poor fit].

Question: With Cc1cc(C)cc(NS(=O)(=O)c2ccc3[nH]cc(C(=O)N4CCc5ccccc54)c(=O)c3c2)c1 as the compound, how does the AC50 [2] read?
Answer: The AC50 was 29.1 µM [falling, single point].

Question: Which AC50 [1] does the source give for Cc1ccc(/C=N/NC(=O)CSc2nc3ccccc3n2Cc2ccc(Cl)cc2)o1 here?
Answer: The AC50 was 20.6 µM [falling, partial curve].

Question: For O=C(CCC1CCCCC1)NCc1cccnc1, which AC50 [1] is on record?
Answer: Its AC50 is 3.16 µM [falling, single point].

Question: For COc1ccc(NC(=O)Nc2cccc(F)c2)c(OC)c1, which AC50 [1] is on record?
Answer: Its AC50 is 35.5 µM [falling, single point].

Question: For CCOC(=O)c1sc(N(Cc2ccccc2)C(=O)COC(=O)c2cnccn2)nc1C, which AC50 [1] is on record?
Answer: Its AC50 is 6.31 µM [rising, single point].

Question: With COCCCNc1nc2c(-c3cccc(C)c3)nnn2c2ccc(Cl)cc12 as the compound, how does the AC50 [1] read?
Answer: Its AC50 is 0.891 µM [falling, partial curve].

Question: With O=C(CN1c2cccc3cccc(c23)S1(=O)=O)Nc1ccc(S(=O)(=O)N2CCOCC2)cc1 as the compound, how does the AC50 [1] read?
Answer: Its AC50 is 4.11 µM [rising, partial curve].

Question: Which AC50 [1] does the source give for CCOC(=O)C1(CCOc2ccccc2)CCN(Cc2ccc(C#CCCO)cc2)CC1 here?
Answer: The AC50 was 35.5 µM [falling, single point].

Question: With CCCCN(C(=O)c1ccc(C#N)cc1)c1c(N)n(CCC)c(=O)[nH]c1=O as the compound, how does the AC50 [1] read?
Answer: The AC50 was 1.12 µM [falling, full curve, poor fit].

Question: With Cc1ccc(-n2nnnc2SCC(=O)N2CC(=O)Nc3ccccc32)cc1 as the compound, how does the AC50 [1] read?
Answer: The AC50 was 25.9 µM [rising, single point].

Question: For CCOC(=O)C1CCN(C(=O)COc2cc(C)c(Br)cc2C)CC1, which AC50 [1] is on record?
Answer: Its AC50 is 5.62 µM [falling, partial curve].

Question: Which AC50 [1] does the source give for Cc1nn(-c2ccccc2)c(Cl)c1C(=O)OCC(=O)NCCc1ccccc1 here?
Answer: Its AC50 is 11.2 µM [falling, single point].

Question: For CC(OC(=O)/C=C/c1ccc2ccccc2n1)C(=O)Nc1ccc(S(N)(=O)=O)cc1 (stereo unspecified), which AC50 [1] is on record?
Answer: The AC50 was 16.4 µM [falling, partial curve].

Question: Which AC50 [1] does the source give for CCOC(=O)Cc1csc(NC(=O)Nc2cccc(OC)c2)n1 here?
Answer: Its AC50 is 7.08 µM [falling, full curve, poor fit].

Question: With O=C(CCC1CCCCC1)NCc1ccncc1 as the compound, how does the AC50 [1] read?
Answer: The AC50 was 32.6 µM [rising, single point].

Question: Which AC50 [1] does the source give for COc1cccc(CSc2nc3n(n2)C(CC(C)C)C(C(=O)Nc2ccccc2OC)=C(C)N3)c1 (stereo unspecified) here?
Answer: Its AC50 is 12.6 µM [falling, single point].

Question: Which AC50 [1] does the source give for COc1cc(OC)cc(C(=O)N[C@H](C(=O)OCC(=O)Nc2sccc2C#N)C(C)C)c1 here?
Answer: The AC50 was 0.794 µM [rising, partial curve, poor fit].

Question: For Cc1oncc1C(=O)Nc1ccc2ccccc2c1, which AC50 [1] is on record?
Answer: Its AC50 is 12.6 µM [falling, partial curve].

Question: Which AC50 [1] does the source give for CC(OC(=O)c1cc(=O)[nH]c2ccccc12)c1ccccc1 (stereo unspecified) here?
Answer: Its AC50 is 14.6 µM [falling, single point].

Question: With CCN(CC)C(=O)C1CCN(S(=O)(=O)c2c(C)noc2/C=C/c2cccc(C)c2)CC1 as the compound, how does the AC50 [1] read?
Answer: Its AC50 is 7.08 µM [falling, full curve].

Question: Which results are given for CCOc1ccccc1NC(=O)C(OC(=O)c1ccc(O)cc1)c1ccccc1 (stereo unspecified)?
Answer: AC50 [1]: 29.1 µM [falling, partial curve, poor fit]; AC50 [2]: 29.1 µM [rising, partial curve, poor fit]

Question: Which AC50 [1] does the source give for CCCSC(=S)NC1CCS(=O)(=O)C1 (stereo unspecified) here?
Answer: Its AC50 is 14.1 µM [falling, single point].

Question: With Cc1nnc(-c2ccccc2)nc1N(C)C as the compound, how does the AC50 [1] read?
Answer: Its AC50 is 0.251 µM [rising, full curve, poor fit].

Question: Which AC50 [1] does the source give for CCCOc1ccc(-c2c(=O)n(OCc3ccc([N+](=O)[O-])cc3)c3ccccc3[n+]2[O-])cc1 here?
Answer: Its AC50 is 32.6 µM [falling, partial curve, poor fit].

Question: Which AC50 [1] does the source give for Cn1cc(-c2ccc(Cl)cc2)cc(C#N)c1=O here?
Answer: The AC50 was 7.08 µM [rising, partial curve, poor fit].

Question: With CC(=O)Nc1ccc(S(=O)(=O)N(C)CC(=O)OCC(=O)NC(C)C23CC4CC(CC(C4)C2)C3)cc1 (stereo unspecified) as the compound, how does the AC50 [1] read?
Answer: Its AC50 is 25.9 µM [rising, single point].

Question: With COc1ccc(N(C(=O)CCl)C(C)(C(=O)Nc2c(C)cccc2C)c2ccccn2)cc1 (stereo unspecified) as the compound, how does the AC50 [1] read?
Answer: The AC50 was 25.9 µM [falling, single point].

Question: Which AC50 [1] does the source give for CCn1cnc2sc(C(=O)N(Cc3ccc(N(C)C)cc3)Cc3ccco3)c(C)c2c1=O here?
Answer: The AC50 was 6.51 µM [rising, partial curve].

Question: For C[C@H](NC(=O)c1nc[nH]c1C(=O)N[C@H](C)c1ccccc1)C(=O)OCc1ccccc1, which AC50 [1] is on record?
Answer: The AC50 was 25.1 µM [falling, single point].

Question: Which AC50 [1] does the source give for COC(=O)c1cc(NC(=O)Nc2ccccc2)ccc1Cl here?
Answer: The AC50 was 29.1 µM [falling, single point].

Question: With CCN(CC)S(=O)(=O)c1ccc2oc(C(=O)NCc3ccc(C)cc3)c(C)c2c1 as the compound, how does the AC50 [1] read?
Answer: The AC50 was 16.4 µM [rising, partial curve, poor fit].

Question: Which AC50 [1] does the source give for CCC1CCCCN1CCNC(=O)c1[nH]c(C)c(C(C)=O)c1C (stereo unspecified) here?
Answer: Its AC50 is 12.6 µM [falling, partial curve, poor fit].

Question: Which AC50 [1] does the source give for CCCC(=O)c1ccc(-c2ccccc2)cc1 here?
Answer: The AC50 was 7.31 µM [rising, partial curve].

Question: Which results are given for CCCCNC(=S)N=Nc1c(O)[nH]c2ccccc12?
Answer: AC50 [1]: 35.5 µM [falling, single point]; AC50 [2]: 15.8 µM [falling, partial curve]

Question: Which AC50 [1] does the source give for COc1cc(OC)c(C2C(C#N)=C(N)Oc3cc(C)n(CCCN4CCOCC4)c(=O)c32)cc1OC (stereo unspecified) here?
Answer: Its AC50 is 10 µM [falling, partial curve].

Question: For Fc1ccc(NC(=S)Nc2ccc(Br)cc2)cc1, which AC50 [1] is on record?
Answer: Its AC50 is 0.92 µM [rising, full curve, poor fit].

Question: For COc1ccc(NC(=O)C2CCCN(S(=O)(=O)c3cccc4nonc34)C2)cc1 (stereo unspecified), which AC50 [1] is on record?
Answer: Its AC50 is 5.17 µM [falling, partial curve, poor fit].

Question: For CSC(=S)N/N=C/c1ccc(Br)cc1, which AC50 [1] is on record?
Answer: The AC50 was 11.2 µM [rising, partial curve, poor fit].

Question: With O=C(CNC(=O)c1ccccc1F)OCc1csc(-c2ccccc2)n1 as the compound, how does the AC50 [1] read?
Answer: The AC50 was 22.4 µM [rising, partial curve, poor fit].

Question: With NC(=S)N/N=C/c1ccc(-c2cccc([N+](=O)[O-])c2)o1 as the compound, how does the AC50 [2] read?
Answer: The AC50 was 22.4 µM [falling, single point].

Question: For COc1ccc(-c2cc(C(=O)Nc3c(C)nn(Cc4ccc(Cl)cc4)c3C)no2)cc1, which AC50 [1] is on record?
Answer: The AC50 was 16.4 µM [rising, partial curve, poor fit].

Question: Which AC50 [1] does the source give for CCCCNc1c(-c2cccc(-c3ccc(OC)cc3)c2)nc2cc(C)ccn12 here?
Answer: The AC50 was 29.1 µM [falling, single point].
